Assay results taken from the supplement of paper PMC8497498.
± gives the standard deviation of the averaged measurements. This is one part of the list. The data scatter; read single values as rough.

Assays:
Details in all cases: 10 µM
[1] = tested on: Plasmodium vivax liver stage (primary human hepatocyte culture); test: hypnozoite quantity inhibition (% inhibition); higher = more active against hypnozoites
[2] = tested on: Plasmodium vivax liver stage (primary human hepatocyte culture); test: schizont net growth area inhibition (% inhibition); higher = more active against liver schizonts
[3] = tested on: primary human hepatocytes; test: hepatic nuclei reduction relative to DMSO (100 - % of negative control); higher = more toxic to hepatocytes
[4] = assay mode: Prophylactic (treated before or shortly after infection), fixed day 6 post-infection
[5] = assay mode: Radical Cure (treated from day 5 post-infection for 3 days), fixed day 8 post-infection

| SMILES | hypnozoite quantity inhibition [1, 4] | hypnozoite quantity inhibition [1, 5] | schizont net growth area inhibition [2, 4] | schizont net growth area inhibition [2, 5] | hepatic nuclei reduction [3, 4] [%] | hepatic nuclei reduction [3, 5] [%] |
| --- | --- | --- | --- | --- | --- | --- |
| Cc1cc(C)cc(COc2ccc3c(C)c(CCC(=O)O)c(=O)oc3c2C)c1 | -23 | -7 | 51.4 | -101 | -9 | -6 |
| COc1ccc2nc(C)cc(OCC(=O)NCc3ccccc3)c2c1 | -3 | 3 | 37.8 | -49 | -11 | -9 |
| O=C(Nc1nc(-c2ccccn2)cs1)c1ccccc1Br | 15.1 | 40.5 | 87.2 | 35 | -3 | -3 |
| O=C(NCCCN1CCC(N2CCCCC2)CC1)C1=Cc2cc(Br)ccc2OC1 | -25.3 | -3.5 | 81.7 | -56 | 4 | -8 |
| COc1cc2cc(C(=O)Nc3ccccc3)c(N)nc2cc1OC | -13.2 | 47.3 | 57.9 | 45.7 | -12 | 1 |
| COc1ccc2nccc(NC(=O)C3CCN(CCc4ccc(Cl)cc4)CC3)c2n1 | 44 | -4 | -10.2 | -47.6 | -6 | -12 |
| CN(C)CC1=C(CNc2ccnc3cc(Cl)ccc23)C=[C-]C1.[C-]1=CC=CC1.[Fe+2] | -37 | 18 | -1.3 | -35.2 | -1 | -1 |
| Cc1nc(-c2ccccn2)nc(N(C)CCc2ccccc2)c1Cl | 6 | 14 | -11.2 | -29.7 | -7 | 2 |
| COc1ccc(Nc2cc(C)nc(NCc3ccccc3)n2)cc1 | 0.9 | 42.7 | 12.5 | -12.9 | 6 | 1 |
| CCN(CC)CCCNc1nc(-c2ccc(Cl)cc2)nc2ccccc12 | 5.7 | 15.6 | 80.5 | 68.9 | 7 | -3 |
| CC(C)(C)n1nc(Cc2ccc(F)c(Cl)c2)c2c(N)ncnc21 | -34 | -10 | 16.2 | -107 | -8 | 5 |
| Cc1cccc(Nc2nc(N)c3ccccc3n2)c1 | 18.8 | 45 | -43.7 | 63.2 | 1 | -6 |
| COc1ccc(C2c3ccc4ccccc4c3Oc3ncn(CCCN(C)C)c(=N)c32)cc1 (configuration not stated) | 57.4 | 35.9 | 82.3 | -6.4 | 41 | -2 |
| CCCn1c(=N)c(C(=O)NC2CCCCC2)cc2c(=O)n3cccc(C)c3nc21 | -4.3 | 35.9 | -20.7 | 51.6 | -7 | 3 |
| CCOC(=O)c1cnc2ccc(CC)cc2c1O | -35.5 | 10.7 | -21 | -46.7 | -13 | -5 |
| CC(C)N=C(N)N=C(N)Nc1ccc(Cl)cc1 | -44 | 7 | 70.5 | 65.6 | -4 | 5 |
| N=c1n(CCN2CCCCC2)c2ccccc2n1CC(O)c1cccc(Br)c1 (configuration not stated) | -42.2 | 35.9 | 24.1 | 67.6 | -8 | 1 |
| Nc1ccn(C2O[C@H](CO)[C@@H](O)[C@H]2O)c(=O)n1 (some centres not stated) | 22.7 | 21 | 2.8 | 27.6 | 1 | -6 |
| C=C(C)CCC(C)N1CCC(N2CCC(C(=O)NCCc3ccccc3)CC2)CC1 (configuration not stated) | -24.3 | 61.1 | 8.9 | 31.9 | -15 | 3 |

| SMILES | hypnozoite quantity inhibition [1, 4] | hypnozoite quantity inhibition [1, 5] | schizont net growth area inhibition [2, 4] | schizont net growth area inhibition [2, 5] | hepatic nuclei reduction [3, 4] [%] | hepatic nuclei reduction [3, 5] [%] |
| --- | --- | --- | --- | --- | --- | --- |
| CCCCNc1nc(NC(C)(C)C)nc(NC(C)(C)C)n1 | 15.1 | 74.8 | 54.9 | 64.4 | -11 | -2 |
| CC1(c2ccccc2)Nc2ccccc2-c2nc3ccccc3n21 (configuration not stated) | -5.1 | 23.7 | 44.8 | -56.2 | -2 | -6 |
| Cc1sc(NC(=O)c2ccccc2)c(C(c2cccs2)N2CCN(c3ccccc3)CC2)c1C (configuration not stated) | -2 | 47.3 | -18.5 | -20.3 | -4 | -4 |
| FC(F)(F)c1ccc(N(c2cccnc2)C2CCN(c3ccc(C(F)(F)F)cn3)CC2)cc1 | -53 | -20 | -56.6 | -24.9 | -8 | -3 |
| Cc1cnc(N2CCN[C@@H](Cc3ccccc3)C2)nc1Oc1ccc(-n2ccnc2)cc1 | -26 | 14 | -8.1 | 23.9 | -9 | -6 |
| Cc1ccc(S(=O)(=O)c2c(COC(=O)c3cccc(C)c3)c(-c3ccccc3)nn2C)cc1 | 54.5 | 45 | 97 | 29.2 | -10 | 6 |
| O=C(Nc1ccc(N2CCNCC2)cc1)c1ccn2ncc(-c3cccc(Cl)c3)c2n1 | -76 | -65 | 109 | 84.3 | 3 | 12 |
| COc1ccc(NC(=O)C2c3ccccc3C(=O)N(CC(C)C)C2c2cccs2)cc1Cl (configuration not stated) | -5.1 | 21 | 39.6 | -5.1 | 3 | -8 |
| CCC(c1ccccc1)c1nn2c(-c3cccs3)nnc2s1 (configuration not stated) | 9.1 | 47.3 | 91.5 | -65.4 | -12 | 4 |
| Cn1ncc2c(N3CCOCC3)nc(NCCc3c[nH]c4ccccc34)nc21 | 10 | -112 | -1.1 | -17.7 | 6 | 8 |
| COc1cccc(-c2cc3c(Nc4cccnc4)nccc3[nH]2)c1 | -3 | -22 | -7.8 | -33.6 | -7 | -9 |
| CCn1nc(-c2ccc(C(=O)OC)cc2)nc2c(=O)n(C)c(=O)nc1-2 | 46.1 | 48.2 | 51.7 | -34.9 | 5 | -5 |
| CCCN(CCC)CCCNC(=O)c1cc2c(-c3ccc(OC)c(OC)c3)nn(C)c2s1 | 8.8 | 21 | 42.5 | 9.9 | 4 | -1 |
| OC(CNCC1CCCO1)Cn1c2ccc(Cl)cc2c2cc(Cl)ccc21 (configuration not stated) | 22.1 | 34.6 | 14.2 | -21.5 | 3 | -5 |
| NS(=O)(=O)c1cccc(-c2ccc3ncc(N4CCOCC4)nc3c2)c1 | 92 | -80 | 102 | 77.7 | -4 | -2 |
| COc1ccc(C=C2SC(=N)N(c3ccccc3OC)C2=O)cc1 | -40 | 24.4 | -120 | -18.2 | -12 | -3 |
| O=C(Nc1ccc(F)c(Cl)c1)Nc1ccc(Cl)c(Cl)c1 | 7.6 | 51 | 34.5 | -0.4 | 5 | -5 |
| CN1C=C(c2ccc3ccccc3n2)C(c2c[nH]c3ccccc23)c2ccccc21 (configuration not stated) | 19.5 | 31.3 | 22.6 | 46.5 | -2 | -3 |
| CC1(COc2ccc(N3CCC(Oc4ccc(OC(F)(F)F)cc4)CC3)cc2)Cn2cc([N+](=O)[O-])nc2O1 (configuration not stated) | 7 | -51 | 7.4 | -173 | -13 | -8 |

An excerpt from the list above, for reference:

| SMILES | hypnozoite quantity inhibition [1, 4] | hypnozoite quantity inhibition [1, 5] | schizont net growth area inhibition [2, 4] | schizont net growth area inhibition [2, 5] | hepatic nuclei reduction [3, 4] [%] | hepatic nuclei reduction [3, 5] [%] |
| --- | --- | --- | --- | --- | --- | --- |
| O=C(Nc1ccc(F)c(Cl)c1)Nc1ccc(Cl)c(Cl)c1 | 7.6 | 51 | 34.5 | -0.4 | 5 | -5 |
| CN1C=C(c2ccc3ccccc3n2)C(c2c[nH]c3ccccc23)c2ccccc21 (configuration not stated) | 19.5 | 31.3 | 22.6 | 46.5 | -2 | -3 |

Going on with the list:

| SMILES | hypnozoite quantity inhibition [1, 4] | hypnozoite quantity inhibition [1, 5] | schizont net growth area inhibition [2, 4] | schizont net growth area inhibition [2, 5] | hepatic nuclei reduction [3, 4] [%] | hepatic nuclei reduction [3, 5] [%] |
| --- | --- | --- | --- | --- | --- | --- |
| Cc1cc(Cl)ccc1NC(=O)CCc1ccc(S(=O)(=O)NCC(C)C)cc1 | -51 | -24 | -74.1 | 26.4 | -8 | -5 |
| Nc1ncc(-c2ccc(C(=O)N3CCNCC3)cc2)nc1-c1ccc(C(F)(F)F)cc1 | 23 | 2 | 87.9 | 36.2 | -5 | -6 |
| COc1ccc(OC)c(NCc2ccc3nc(N)nc(N)c3c2Cl)c1 | -89 | 19 | 96.3 | 45 | -8 | 0 |
| CCOC(=O)c1c(NC(=O)c2ccccc2)sc2c(O)c(CN(CC)CC)ccc12 | -4.3 | 1.5 | -162 | 26.5 | -1 | -12 |
| O=C(Nc1nnc(S)s1)c1cc(Br)ccc1Cl | -7 | 0 | 9.4 | 40.5 | -7 | -2 |
| O=C(NC1CCN(Cc2ccccc2)CC1)c1cc(-c2ccncc2)nc2ccc(Cl)cc12 | -20.6 | 22.1 | 12.1 | -80.5 | -6 | 0 |
| COc1ccc2c(=O)cc(C(Cl)(Cl)Cl)oc2c1 | -11.4 | 26.5 | -8.1 | -62.9 | 0 | -1 |
| CCCCN(CCCC)CCC(O)c1cc2c(Cl)cc(Cl)cc2c2cc(C(F)(F)F)ccc12 (configuration not stated) | -39 | 26 | -77.3 | 39.7 | 4 | 0 |
| Nc1ccc(C(=O)Nc2ccc(-c3nc4ccccc4o3)cc2)cc1 | -15 | 4 | 9.6 | -4.9 | -11 | -2 |
| COc1ccc(OC)c(C2C3=C(CC(C)(C)CC3=O)N(c3ccc(Cl)c(Cl)c3)C3=C2C(=O)CC(C)(C)C3)c1 | 27.8 | 53.7 | -37.4 | -2.6 | 0 | -7 |
| Nc1ccc(S(=O)(=O)Nc2ncccn2)cc1 | -14 | 49 | 35.3 | 78.9 | -4 | 6 |
| CN1CCN(S(=O)(=O)c2ccc(-c3ccc4c(Nc5ccc6nn[nH]c6c5)ccnc4c3)cc2)CC1 | -4 | -2 | -9.2 | -34.3 | 1 | -6 |
| CC(=O)NCCc1nc2ccccc2n1Cc1ccc(C(C)C)cc1 | 7 | 1.9 | 41.2 | 5.9 | 5 | -5 |
| Cc1ccc(N2C3c4ccccc4N(S(=O)(=O)c4ccc(C)cc4)C2c2ccccc2N3S(=O)(=O)c2ccc(C)cc2)cc1 | -6.5 | 29 | 11.5 | 40.4 | -6 | -2 |
| O=C(c1ccccc1F)N(Cc1ccc(Cl)cc1)c1ccccn1 | 4.6 | 17.6 | 9.4 | 11.1 | 2 | -3 |
| CC1=Nc2ccc(Cl)cc2C(O)(c2ccc(C)cc2)N1CCN1CCCCC1 (configuration not stated) | -34 | 31 | 3 | -13.7 | -8 | -11 |
| N=c1n(CCN2CCCCC2)c2ccccc2n1CC(=O)c1ccc(Cl)c(Cl)c1 | 44.8 | 51.9 | 58.9 | 8.5 | -18 | 14 |
| Cc1c(C)n(Cc2ccc(F)cc2)c2ccc(C(=O)NCc3ccco3)cc12 | 10.7 | 67.3 | 35.9 | 6.6 | 8 | -3 |
| COc1cc(C)c2c(Oc3cccc(C(F)(F)F)c3)c(OC)cc(NC(C)CCCN)c2n1 (configuration not stated) | 2 | 58.7 ± 2.4 | 93 | 62 ± 43 | -23 | -5 ± 7.1 |
